Patent publication US12486270B2, “Receptor tyrosine kinase inhibitors for treatment of protein kinase modulation-responsive disease or disorder” (THE UNITED STATES OF AMERICA, as represented by the …, priority 2019, dated 2025)
“Also recorded” adds a separate entry of the source. For at least one compound, name, drawing or mass did not settle the structure.

Key:
HT-29 cells [1] = test: HT-29 cell proliferation (3H-thymidine incorporation); format: cell-based, human; conditions: 72-hour incubation
[2] = system: colorectal carcinoma cell lines; test: Proliferation of 10 colorectal carcinoma cell lines; format: cell-based, human; conditions: 72-hour incubation
HUVEC = HUVEC proliferation (specificity control); format: cell-based, human
MG63 = MG63 proliferation (specificity control); format: cell-based, human
hDMEC = hDMEC proliferation; format: cell-based, human; conditions: at the effective dose, 72 hrs
HT-29 cells [3] = test: Cell death by flow cytometry in HT-29 cells; format: cell-based, human; conditions: 1 μM, 72-hour incubation
LC3B [4] = test: LC3B autophagy marker by immunoblotting in HT-29 cells; format: cell-based, human; conditions: 72-hour incubation
Procedure: Western blotting. Protein lysates were separated by SDS-PAGE and then transferred to a nitrocellulose membrane. After blocking, membranes were incubated overnight with antibodies to LC3 (rabbit Monoclonal antibody, Cell Signaling).

LC3 = LC3 autophagic puncta imaging in HT-29 cells transduced with fluorescent LC3; format: cell-based, human; conditions: 72 hours
Procedure: Autophagy-related cell death was assessed by evaluation of LC3 autophagy-associated protein. The cells were first induced to stably express fluorescent pK (pHluorin-mKate2) LC3 by lentiviral infection. The cells were subsequently grown on glass coverslips (ThermoFisher, 12-545-81) until 50% confluent. Coverslips were washed with PBS −/−, fixed with 4% PEA for 15 minutes at room temperature, washed with TBS, mounted with DAPI-containing mounting media, allowed to harden overnight and sealed. Coverslips were imaged on a confocal Zeiss 780 microscope. Images were analyzed by CellProfiler using automatic thresholding to calculate the number of nuclei (DAPI staining) and the number of puncta. The results are expressed as the percent cells with two or more puncta. […] Monolayer cell confluency overtime was measured by IncuCyte HD (Essen BioSciences) imaging.
Immunostaining and microscopy. […] Maximum intensity projections (Zen Software 2.3 Blue Edition; Carl Zeiss) were used for quantification using CellProfiler software (Kamentsky et al., Bioinformatics 2011, 27:1179-1180) with automatic thresholding. Integrated intensity of CD31 was measured. The percent Ki-67 positive cells was measured by calculating the number of Ki-67 positive cells/total number DAPI^+ nuclei. The area of cleaved Caspase-3 positive area/total area was calculated by CellProfiler with automatic threshold. […]

HT-29 cells [5] = test: Cell cycle analysis by flow cytometry in HT-29 cells; format: cell-based, human; conditions: 1 μM, 72 hrs
EphrinB2 = test: Endogenous EphrinB2 phosphorylation, immunoprecipitation/immunoblot in HT-29 cells; format: cell-based, human; conditions: 1 μM, 18-hour pretreatment
Colo205 tumor = test: Colo205 subcutaneous tumor model in nu/nu mice; format: in vivo; conditions: 40 mg/kg or 60 mg/kg daily i.p.
LC3B [6] = test: LC3B accumulation in SW620 cells; format: cell-based, human; conditions: 1 μM, 72 hours
Procedure: Western blotting. Protein lysates were separated by SDS-PAGE and then transferred to a nitrocellulose membrane. After blocking, membranes were incubated overnight with antibodies to LC3 (rabbit Monoclonal antibody, Cell Signaling). After washing with TBS-T (TBS with 0.05 Tween-20), membranes were incubated with the HRP (Horseradish peroxidase)-linked secondary antibody (IgG donkey anti-rabbit IgG (NA934) (GE LifeSciences, Marlborough, MA). Blots were developed using ECL prime (GE LifeSciences, RPN2232) and digitally captured on an LAS4000 (GE LifeSciences). After stripping, the membrane was re-probed with a mouse monoclonal antibody to GAPDH (Santa Cruz) followed by a secondary IgG sheep anti-mouse IgG (NA931). Western blot bands were quantified using Fiji (Schindelin et al., 2012).

`Cc1ccc(C(=O)Nc2cccc(C(F)(F)F)c2)cc1Nc1nc(-c2cccnc2)nc2c1cnn2C` [NVP, NVP-BHG712] was tested, and the HT-29 cell proliferation (HT-29 cells [1]) was “dose-dependently reduced HT-29 cell proliferation; also recorded: dose-dependently inhibits HT-29 cell proliferation”, the “proliferation of colon carcinoma cell lines” value [2] was “reduce the proliferation of 10/10 colon carcinoma cell lines” and the “reduction of HUVECs proliferation” value (HUVEC; 125-2000 nM) was “minimal or no reduction”. The “proliferation of HUVEC” value (HUVEC; at the effective dose, 72 hrs) was “minimally reduced the proliferation”, the “reduction of MG63 cell proliferation” value (MG63; 125-2000 nM) was “minimal or no reduction” and the “proliferation of MG63” value (MG63; at the effective dose, 72 hrs) was “minimally reduced the proliferation”. For the same molecule, the “proliferation of hDMEC” value (hDMEC) was “minimally reduced the proliferation”, the “cell death by flow cytometry” value (HT-29 cells [3]) was “promoted significant cell death; also recorded: induce morphologic change and cell death” and the “induction of autophagosome marker LC3B (immunoblotting)” value (LC3B [4]) was “reproducibly induce accumulation of the autophagosome marker LC3B; also recorded: induce the autophagy marker protein LC3B”. For the same molecule, the LC3-related autophagy puncta (LC3) was “increase significantly the average number of LC3-related puncta/cell”, the cell cycle distribution (HT-29 cells [5]) was “Neither compound altered cell cycle distribution” and the “endogenous EphrinB2 phosphorylation” value (EphrinB2) was “did not reduce endogenous EphrinB2 phosphorylation; also recorded: do not reduce endogenous EphrinB2 phosphorylation”. The “Colo205 tumor growth (tumor measurements and tumor weight)” value (Colo205 tumor) was “reduced significantly Colo205 tumor growth; also recorded: reduces colorectal cancer growth” and the “LC3B accumulation in SW620 cells” value (LC3B [6]) was “induce LC3B accumulation”.
